Measurements reported in US11787772B2, “Carboxylic diarythiazepineamines as mixed mu- and delta-opioid receptor agonists” (THE TRUSTEES OF COLUMBIA UNIVERSITY IN THE CITY OF NEW YORK, priority 2017, dated 2023).

Experiment: physchem
Settings: 25 °C, thermodynamic from solid
Method: Test compounds (4 mg) were added to 200 μL of one of the tested aqueous solutions (hereinafter—buffer): 100 mM aqueous HCl (pH 1) or 100 mM Na-phosphate buffer (pH 7). The obtained suspensions/solutions with the theoretical concentration of 20 mg/mL were further allowed to equilibrate at 25° C. on a thermostatic orbital shaker for 24 hours and then centrifuged at 6000 rpm for 4 minutes and filtered through HTS filter plates using a vacuum manifold. In parallel, compound dilutions in 50% acetonitrile/HCl and 30% acetonitrile/Na-phosphate buffer mixes were prepared to theoretical concentrations of 0 mg/mL (blank), 0.1 mg/mL, 0.2 mg/mL, and 0.4 mg/mL in duplicates to generate calibration curves falling within the optimum UV absorption range. The filtrates of test compounds were diluted 100-fold with acetonitrile-buffer mixtures before measuring. The filtered supernatant test samples were transferred to 96-well plates and measured for absorbance in the 200-550 nm range with 5 nm step increment. The concentrations of compounds in supernatants were calculated using the measured absorbance and the previously determined calibration curve. Proper absorbance wavelengths for calculations were selected for each compound manually based on absorbance maxima (absolute absorbance unit values for the minimum and maximum concentration points within 0-2.5 OD range).

## CN1c2ccccc2C(NCCCCCCC(=O)O)c2ccc(Cl)cc2S1(=O)=O.Cl (centres unmarked) [tianeptine (HCl salt), tianeptine, reference compound]
pH 1, simulated gastric fluid
  solubility: 680 µg/mL
pH 7, aqueous buffer
  solubility: 260 µg/mL
